Read-outs that look alike come from different tables or passages of the source. These are yes or no findings as the source states them, for the method shown. Binding seen in cells or lysates may run through a third protein. Some results given as binding are weak or reduced against the parent protein; the word gives no strength. Where a sequence is shown, tags or fusion partners need not be part of it.
Tests used:
[1] = target: T1, WT ARL14–GFP (human) (UniProt Q8N4G2); experiment: proximity ligation; Duolink PLA on fixed, permeabilised Flp-In HeLa cells expressing ARL14 WT–GFP (GFP alone as control), with overexpressed HA–PLD1 or endogenous SNX1 / SNX6; puncta per cell counted
T1 sequence: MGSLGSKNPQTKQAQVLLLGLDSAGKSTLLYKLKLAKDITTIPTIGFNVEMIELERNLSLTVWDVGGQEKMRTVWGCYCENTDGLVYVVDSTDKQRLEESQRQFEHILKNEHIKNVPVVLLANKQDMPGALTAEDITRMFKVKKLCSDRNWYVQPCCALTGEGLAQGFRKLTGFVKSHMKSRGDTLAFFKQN

The chains behind the UniProt entries cited, without tags or fusion partners.
UniProt Q13596: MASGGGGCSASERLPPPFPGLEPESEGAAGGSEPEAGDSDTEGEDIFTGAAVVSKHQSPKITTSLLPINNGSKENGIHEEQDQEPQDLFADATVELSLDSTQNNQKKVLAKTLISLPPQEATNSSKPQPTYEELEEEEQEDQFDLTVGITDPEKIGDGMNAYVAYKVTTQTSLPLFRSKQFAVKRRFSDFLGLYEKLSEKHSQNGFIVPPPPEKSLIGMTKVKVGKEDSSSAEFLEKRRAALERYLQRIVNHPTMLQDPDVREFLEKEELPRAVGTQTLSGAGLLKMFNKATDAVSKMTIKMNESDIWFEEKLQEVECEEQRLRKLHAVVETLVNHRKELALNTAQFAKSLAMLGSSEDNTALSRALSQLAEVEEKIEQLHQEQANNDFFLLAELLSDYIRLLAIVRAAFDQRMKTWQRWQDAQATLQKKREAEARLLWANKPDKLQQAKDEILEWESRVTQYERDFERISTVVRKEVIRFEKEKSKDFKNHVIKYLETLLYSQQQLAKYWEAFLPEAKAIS

[2] = target: T1, WT ARL14–GFP (human); experiment: as above; remark: listed apart in the source

SNX1 (from UniProt Q13596 1-522)
binding [1]: binds

B1: HA–PLD1 (enzyme, UniProt Q13393 1-1074)
chain: MSLKNEPRVNTSALQKIAADMSNIIENLDTRELHFEGEEVDYDVSPSDPKIQEVYIPFSAIYNTQGFKEPNIQTYLSGCPIKAQVLEVERFTSTTRVPSINLYTIELTHGEFKWQVKRKFKHFQEFHRELLKYKAFIRIPIPTRRHTFRRQNVREEPREMPSLPRSSENMIREEQFLGRRKQLEDYLTKILKMPMYRNYHATTEFLDISQLSFIHDLGPKGIEGMIMKRSGGHRIPGLNCCGQGRACYRWSKRWLIVKDSFLLYMKPDSGAIAFVLLVDKEFKIKVGKKETETKYGIRIDNLSRTLILKCNSYRHARWWGGAIEEFIQKHGTNFLKDHRFGSYAAIQENALAKWYVNAKGYFEDVANAMEEANEEIFITDWWLSPEIFLKRPVVEGNRWRLDCILKRKAQQGVRIFIMLYKEVELALGINSEYTKRTLMRLHPNIKVMRHPDHVSSTVYLWAHHEKLVIIDQSVAFVGGIDLAYGRWDDNEHRLTDVGSVKRVTSGPSLGSLPPAAMESMESLRLKDKNEPVQNLPIQKSIDDVDSKLKGIGKPRKFSKFSLYKQLHRHHLHDADSISSIDSTSSYFNHYRSHHNLIHGLKPHFKLFHPSSESEQGLTRPHADTGSIRSLQTGVGELHGETRFWHGKDYCNFVFKDWVQLDKPFADFIDRYSTPRMPWHDIASAVHGKAARDVARHFIQRWNFTKIMKSKYRSLSYPFLLPKSQTTAHELRYQVPGSVHANVQLLRSAADWSAGIKYHEESIHAAYVHVIENSRHYIYIENQFFISCADDKVVFNKIGDAIAQRILKAHRENQKYRVYVVIPLLPGFEGDISTGGGNALQAIMHFNYRTMCRGENSILGQLKAELGNQWINYISFCGLRTHAELEGNLVTELIYVHSKLLIADDNTVIIGSANINDRSMLGKRDSEMAVIVQDTETVPSVMDGKEYQAGRFARGLRLQCFRVVLGYLDDPSEDIQDPVSDKFFKEVWVSTAARNATIYDKVFRCLPNDEVHNLIQLRDFINKPVLAKEDPIRAEEELKKIRGFLVQFPFYFLSEESLLPSVGTKEAIVPMEVWT
binding [2]: binds

Reference: paper PMC11166204, “Mapping the global interactome of the ARF family reveals spatial organization in cellular signaling pathways” (Journal of Cell Science, 2024)
